The experiment deals with GFP-tagged inverted formin 2 (INF2-GFP) (UniProt Q0GNC1). Put plainly: co-IP; anti-GFP antibody (2 µg) on Protein G Dynabeads; lysates (1% Triton X-100) of HT-22 cells co-expressing INF2-GFP or GFP with myc-CAP1 or myc-CAP2 and dsRed; 2 h at 8 °C; washing buffer 20 mM Tris/HCl pH 8.0, 100 mM NaCl; immunoblots for myc and β-actin. Background: A western blot detects proteins with antibodies after separation by electrophoresis.

Sequences of proteins named here, by UniProt entry; tags and fusion partners are left off.
UniProt Q0GNC1: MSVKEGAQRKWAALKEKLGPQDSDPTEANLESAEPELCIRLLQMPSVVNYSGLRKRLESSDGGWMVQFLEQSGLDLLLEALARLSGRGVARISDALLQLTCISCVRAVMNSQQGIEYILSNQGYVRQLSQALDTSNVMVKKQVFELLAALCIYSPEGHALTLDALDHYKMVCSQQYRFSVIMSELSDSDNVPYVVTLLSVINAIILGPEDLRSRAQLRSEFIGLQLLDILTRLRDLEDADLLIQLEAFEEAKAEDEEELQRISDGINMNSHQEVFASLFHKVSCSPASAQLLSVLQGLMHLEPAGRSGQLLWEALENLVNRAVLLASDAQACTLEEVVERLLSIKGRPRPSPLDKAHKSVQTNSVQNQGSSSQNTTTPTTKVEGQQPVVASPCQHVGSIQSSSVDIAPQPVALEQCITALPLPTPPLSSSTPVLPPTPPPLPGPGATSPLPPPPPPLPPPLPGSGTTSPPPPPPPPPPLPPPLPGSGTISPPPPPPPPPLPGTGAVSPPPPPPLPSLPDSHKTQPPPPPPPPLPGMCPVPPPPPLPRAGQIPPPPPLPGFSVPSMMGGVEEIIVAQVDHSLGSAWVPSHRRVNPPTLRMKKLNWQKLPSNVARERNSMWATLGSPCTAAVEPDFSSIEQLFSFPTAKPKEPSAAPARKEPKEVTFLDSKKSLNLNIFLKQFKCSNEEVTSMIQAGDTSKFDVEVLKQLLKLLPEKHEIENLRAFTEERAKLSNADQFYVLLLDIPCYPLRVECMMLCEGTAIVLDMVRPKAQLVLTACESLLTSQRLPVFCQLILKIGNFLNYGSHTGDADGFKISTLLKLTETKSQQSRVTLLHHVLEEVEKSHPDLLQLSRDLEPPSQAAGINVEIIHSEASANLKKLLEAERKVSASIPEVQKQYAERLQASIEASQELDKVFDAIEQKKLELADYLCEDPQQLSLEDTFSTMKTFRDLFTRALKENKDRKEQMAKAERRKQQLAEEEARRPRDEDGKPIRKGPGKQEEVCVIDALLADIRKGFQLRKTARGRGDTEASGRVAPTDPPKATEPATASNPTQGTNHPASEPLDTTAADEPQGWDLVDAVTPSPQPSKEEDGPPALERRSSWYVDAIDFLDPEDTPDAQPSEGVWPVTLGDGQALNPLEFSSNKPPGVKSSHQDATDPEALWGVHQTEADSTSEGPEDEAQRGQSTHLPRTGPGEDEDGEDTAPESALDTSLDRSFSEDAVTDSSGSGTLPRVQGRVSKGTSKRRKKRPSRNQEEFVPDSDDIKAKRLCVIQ

These are yes or no findings as the source states them, for the method shown. Binding seen in cells or lysates may run through a third protein. Some entries that bind do so weakly or less than the wild type. Tags and fused reporters may be left off the sequences shown.

This note sets out measurements from PMC11335277.

B1: myc-tagged cyclase-associated protein 1 (myc-CAP1) (protein, UniProt P40124 1-474)
chain: MADMQNLVERLERAVGRLEAVSHTSDMHCGYGDSPSKGAVPYVQAFDSLLANPVAEYLKMSKEIGGDVQKHAEMVHTGLKLERALLATASQCQQPAGNKLSDLLAPISEQIQEVITFREKNRGSKFFNHLSAVSESIQALGWVALAAKPGPFVKEMNDAAMFYTNRVLKEYRDVDKKHVDWVRAYLSIWTELQAYIKEFHTTGLAWSKTGPVAKELSGLPSGPSVGSGPPPPPPGPPPPPISTSSGSDDSASRSALFAQINQGESITHALKHVSDDMKTHKNPALKAQSGPVRSGPKPFSAPKPQTSPSPKPATKKEPALLELEGKKWRVENQENVSNLVIDDTELKQVAYIYKCVNTTLQIKGKINSITVDNCKKLGLVFDDVVGIVEIINSRDVKVQVMGKVPTISINKTDGCHAYLSKNSLDCEIVSAKSSEMNVLIPTEGGDFNEFPVPEQFKTLWNGQKLVTTVTEIAG
Regarding B1, the binding entry is “binds”.

B2: myc-tagged cyclase-associated protein 2 (myc-CAP2) (protein, UniProt Q9CYT6 1-476)
chain: MTDMAGLMERLERAVIRLEQLSAGLDGPPRGCGEVNGVNGGVAPSVEAFDKLINSMVAEFLKNSRVLAGDVETHAEMVHGAFQAQRAFLLMVSQYQQPQENEVAVLLKPISEKIQEIQTFRERNRGSNMFNHLSAVSESIAALGWIAVSPKPGPYVKEMNDAATFYTNRVLKDYKHSDLRHVDWVRSYLNIWSELQAYIREHHTTGLTWSKTGPVASTASAFSILSSGPGLPPPPPPPPPPGPPPPFENEDKKEEPSPSRSALFAQLNQGEAITKGLRHVTDDKKTYKNPSLRAQGQIRSPTKTHTPSPTSPKSNSPQKHTPVLELEGKKWRVEYQEDRNDLVISETELKQVAYIFKCDKSTLQIKGKVNSITVDNCKKFGLVFDHVVGIVEVINSKDIQIQVMGRVPTISINKTEGCHLYLSEDALDCEIVSAKSSEMNVLVPQDDDYREFPIPEQFKTIWDGSKLVTEPAEIMA
For B2, the binding entry was “binds”.
